Test results published in article doi:10.1101/2020.09.21.305680.
These are yes or no findings as the source states them, for the method shown. Some results given as binding are weak or reduced against the parent protein; the word gives no strength.

How the values were obtained:
[1] = target: T1, Sld3 P623Q (S. cerevisiae) (UniProt P53135); experiment: two-hybrid
T1 sequence: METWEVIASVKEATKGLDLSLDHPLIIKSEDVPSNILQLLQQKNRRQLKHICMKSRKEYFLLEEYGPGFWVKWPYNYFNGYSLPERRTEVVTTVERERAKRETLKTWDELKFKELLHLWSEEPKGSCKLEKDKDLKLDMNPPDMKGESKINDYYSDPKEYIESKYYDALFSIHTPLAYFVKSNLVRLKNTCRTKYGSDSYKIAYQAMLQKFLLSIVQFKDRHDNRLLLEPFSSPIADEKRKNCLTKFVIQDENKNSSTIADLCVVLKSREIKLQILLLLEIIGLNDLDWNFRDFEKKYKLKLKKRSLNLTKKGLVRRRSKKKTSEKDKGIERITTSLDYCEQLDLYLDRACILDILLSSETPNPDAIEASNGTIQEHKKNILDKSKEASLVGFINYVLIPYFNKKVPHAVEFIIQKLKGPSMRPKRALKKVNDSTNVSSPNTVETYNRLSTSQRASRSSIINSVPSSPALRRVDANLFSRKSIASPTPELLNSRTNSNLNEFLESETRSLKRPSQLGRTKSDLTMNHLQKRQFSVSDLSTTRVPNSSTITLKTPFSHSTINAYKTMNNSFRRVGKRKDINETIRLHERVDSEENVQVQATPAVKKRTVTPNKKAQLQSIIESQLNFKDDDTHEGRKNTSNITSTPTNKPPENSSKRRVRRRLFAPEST

Sld3 (S. cerevisiae) = target: T2, Sld3 (S. cerevisiae) (UniProt P53135); experiment: two-hybrid
T2 sequence: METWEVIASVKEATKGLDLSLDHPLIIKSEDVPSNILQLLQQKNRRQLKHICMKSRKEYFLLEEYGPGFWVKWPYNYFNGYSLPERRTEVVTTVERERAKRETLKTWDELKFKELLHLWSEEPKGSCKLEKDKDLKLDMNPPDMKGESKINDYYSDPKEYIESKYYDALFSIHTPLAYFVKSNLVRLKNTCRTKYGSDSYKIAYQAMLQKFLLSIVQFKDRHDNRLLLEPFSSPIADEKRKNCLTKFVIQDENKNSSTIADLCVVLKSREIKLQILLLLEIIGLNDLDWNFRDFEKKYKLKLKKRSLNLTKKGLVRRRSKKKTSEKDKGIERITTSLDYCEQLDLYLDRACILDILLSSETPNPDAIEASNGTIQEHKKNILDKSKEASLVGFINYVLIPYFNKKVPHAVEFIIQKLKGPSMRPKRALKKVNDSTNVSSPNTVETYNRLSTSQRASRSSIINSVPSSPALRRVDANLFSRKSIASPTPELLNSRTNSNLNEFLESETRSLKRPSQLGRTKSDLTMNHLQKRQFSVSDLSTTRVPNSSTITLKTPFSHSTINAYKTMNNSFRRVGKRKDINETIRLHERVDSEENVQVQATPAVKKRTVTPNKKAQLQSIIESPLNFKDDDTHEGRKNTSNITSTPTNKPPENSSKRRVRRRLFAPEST

B1: Esa1 (protein, UniProt Q08649 1-445)
chain: MSHDGKEEPGIAKKINSVDDIIIKCQCWVQKNDEERLAEILSINTRKAPPKFYVHYVNYNKRLDEWITTDRINLDKEVLYPKLKATDEDNKKQKKKKATNTSETPQDSLQDGVDGFSRENTDVMDLDNLNVQGIKDENISHEDEIKKLRTSGSMTQNPHEVARVRNLNRIIMGKYEIEPWYFSPYPIELTDEDFIYIDDFTLQYFGSKKQYERYRKKCTLRHPPGNEIYRDDYVSFFEIDGRKQRTWCRNLCLLSKLFLDHKTLYYDVDPFLFYCMTRRDELGHHLVGYFSKEKESADGYNVACILTLPQYQRMGYGKLLIEFSYELSKKENKVGSPEKPLSDLGLLSYRAYWSDTLITLLVEHQKEITIDEISSMTSMTTTDILHTAKTLNILRYYKGQHIIFLNEDILDRYNRLKAKKRRTIDPNRLIWKPPVFTASQLRFAW
Q: What does the source list for B1?
A: binding [1]: binds; binding (Sld3 (S. cerevisiae)): binds
